{
  "source": "PubChem BioAssay AID853",
  "about": "(Columbia University Molecular Screening Center, 2007)",
  "note": "Hit rate of the full screen: of about 47,000 compounds, about 200 (0.43%) were called active. This list was built around the results that the source calls inconclusive (neither active nor inactive); the mix of calls is not that of the screen.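 Rule for the calls: active = inhibition of aggregate fluorescence above about 70%, also judged a hit by eye on the cell image (limit read from the data, passing the limit was not always enough); inconclusive = no rule stated for this call; inactive = not judged a hit on image review.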",
  "data": [
    {"experiment": "clearance of mutant huntingtin inclusions, primary screen, imaging, HeLa Exon1htt(103Q)mCFP, confocal imaging (AID 853);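 note: cells exposed to compound for three days before fixation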", "conditions": "aggregate imaging, at 1.5 µM, active compounds read high, zero = plate's median compound well", "values": [
      {"smiles": "CNC(=O)c1c(NC(=O)c2nc3ccccc3s2)sc2c1CCC2", "inhibition": "inconclusive: 78.1%"},
      {"smiles": "CC(NC(=O)c1cncc(Br)c1)c1ccc(S(N)(=O)=O)cc1", "note": "(stereo not given)", "inhibition": "inconclusive: 77.6%"},
      {"smiles": "CC1CCCC(C)N1C(=O)Cn1cc(/C=C2/C(=O)Nc3ccccc32)c2ccccc21", "note": "(stereo not given)", "inhibition": "inactive: -12.2%"},
      {"smiles": "COc1ccc(-c2nnc(SCC(=O)OC3CCCCC3)o2)cc1OC", "inhibition": "active: 72.5%"},
      {"smiles": "CCCN1CCN(C(=O)Cn2cccc2C(=O)c2ccccc2)CC1", "inhibition": "inactive: -0.5%"},
      {"smiles": "Cc1ccc(CNC(=O)CSc2n[nH]c(N)n2)cc1", "inhibition": "active: 82.2%"},
      {"smiles": "CC(C)OC(=O)N(C)c1ccc(C(O)(C(F)(F)F)C(F)(F)F)cc1", "inhibition": "active: 75.7%"},
      {"smiles": "O=C1NC(c2cc3c(cc2Cl)OCO3)Oc2ccccc21", "note": "(stereo not given)", "inhibition": "inconclusive: 79.7%"},
      {"smiles": "CCCC(=O)N1CCN(c2ccc(NC(=O)c3ccccc3)cc2)CC1", "inhibition": "inconclusive: 71.3%"},
      {"smiles": "COc1ccc2c(C)cc(N3CCOCC3)nc2c1", "inhibition": "active: 73.3%"},
      {"smiles": "CCOC(=O)C1CCCN(C(=O)Cc2ccc(OC)c(OC)c2)C1", "note": "(stereo not given)", "inhibition": "inactive: -3.2%"},
      {"smiles": "CCCCc1nc2ccccc2n2cc3c(=O)n(C)c(=O)n(C)c3c12", "inhibition": "inconclusive: 81.7%"},
      {"smiles": "O=C(Nc1ccc(Oc2ccc(S(=O)(=O)N3CCOCC3)cn2)cc1)c1ccco1", "inhibition": "inconclusive: 72.7%"},
      {"smiles": "O=C(NCc1ccco1)c1ccc(=O)[nH]n1", "inhibition": "active: 72%"},
      {"smiles": "CC(C)CCn1c(N2CCC(C(N)=O)CC2)nc2c1c(=O)[nH]c(=O)n2C", "inhibition": "inconclusive: 90.1%"},
      {"smiles": "O=C(O)CCN1C(=O)c2ccncc2C1=O", "inhibition": "inconclusive: 86%"},
      {"smiles": "CCOc1cc(CO)cc(Br)c1OCC(=O)O", "inhibition": "inactive: -23%"},
      {"smiles": "Cc1cc(C)cc(NC(=O)c2cccc(NC(=O)C3C4CC5OC(=O)C3C5C4)c2)c1", "note": "(stereo not given)", "inhibition": "inactive: -31.4%"},
      {"smiles": "CCCc1cc(C(=O)Nc2sc3c(c2C#N)CCC3)no1", "inhibition": "active: 82.4%"},
      {"smiles": "Cc1ccc(-n2ncc3c(=O)n(CC(=O)N4CCN(c5ccccc5F)CC4)cnc32)cc1C", "inhibition": "inconclusive: 84.3%"},
      {"smiles": "Cc1ccc(NC(=O)Cn2nnc(C(=O)Nc3ccc(C)c(C)c3)c2N)cc1", "inhibition": "active: 82.9%"},
      {"smiles": "CCc1[nH]nc2c1C(c1ccc(Br)s1)C(C#N)=C(N)O2", "note": "(stereo not given)", "inhibition": "inactive: 63.5%"},
      {"smiles": "Cc1c(CCO)c(=O)n(-c2ccccc2)n1S(=O)(=O)c1c(Cl)cc(Cl)cc1Cl", "inhibition": "inactive: 38.5%"},
      {"smiles": "C=CCn1c(=O)c2c(C)c(C)sc2n2c(Nc3ccc(OC)cc3)nnc12", "inhibition": "inactive: -52.7%"},
      {"smiles": "CC(C)(C)c1nc(NCCN2CCOCC2)c2nnn(Cc3ccccc3Cl)c2n1", "inhibition": "inconclusive: 81.2%"},
      {"smiles": "Cn1c(=O)c2c(nc(CN3CCOCC3)n2Cc2ccccc2)n(C)c1=O", "inhibition": "inconclusive: 74.3%"},
      {"smiles": "COc1ccc(N2CC(C)Cn3c2nc2c3c(=O)n(Cc3ccccc3F)c(=O)n2C)c(OC)c1", "note": "(stereo not given)", "inhibition": "inconclusive: 78.7%"},
      {"smiles": "c1ccc2c(c1)C(=Nn1cnnc1)c1ccccc1-2", "inhibition": "inactive: 9.5%"},
      {"smiles": "Fc1ccc(-c2noc(C3CCN(Cc4cccnc4)CC3)n2)cc1", "inhibition": "inconclusive: 71.8%"},
      {"smiles": "COc1ccc(CCn2c(-c3ccco3)nc3nc4ccccc4nc32)cc1", "inhibition": "inconclusive: 91.3%"},
      {"smiles": "CCOC(=O)CSc1nc(C)cc(=O)[nH]1", "inhibition": "active: 71.3%"},
      {"smiles": "O=c1[nH]c2ccc(Br)cc2c(-c2ccccc2)c1N1CCOCC1", "inhibition": "inconclusive: 73%"},
      {"smiles": "O=C(c1ccccc1)c1ccc(OCCn2cnc3ccccc3c2=O)cc1", "inhibition": "inconclusive: 71.4%"},
      {"smiles": "Nc1nc(SCC(=O)N2CCCc3ccccc32)[nH]c(=O)c1-c1ccccc1", "inhibition": "active: 70%"},
      {"smiles": "CC(C)c1cc(NC(=O)C(C)(C)C)cc(C(C)C)c1O", "inhibition": "inconclusive: 76.1%"},
      {"smiles": "COCCCNC(=O)CCn1c(=O)c2ccccc2n(CC(=O)Nc2cc(Cl)ccc2C)c1=O", "inhibition": "inactive: 38.8%"},
      {"smiles": "Nc1nonc1-c1nc2ccccc2[nH]1", "inhibition": "inactive: 30.1%"},
      {"smiles": "Cc1cccn2c(=O)c3cc(C(=O)N4c5ccccc5CC4C)n(C)c3nc12", "note": "(stereo not given)", "inhibition": "inactive: -30.6%"},
      {"smiles": "N#CC1=C(N)NC(SCC(=O)Nc2ccccc2)=C(C#N)C12CCCCC2", "inhibition": "inconclusive: 79.3%"},
      {"smiles": "COc1ccc(N(CC(=O)N/N=C/c2ccco2)S(=O)(=O)c2ccccc2)cc1", "inhibition": "inactive: 15.5%"},
      {"smiles": "O=C(CCC1CCCC1)N1CCN(C(=O)c2ccco2)CC1", "inhibition": "active: 71.5%"},
      {"smiles": "CCN(CC)C(=O)c1cc(-c2ccc(Br)cc2)on1", "inhibition": "inactive: -0.3%"},
      {"smiles": "CCOC(=O)c1c(C)[nH]c(C(=O)COC(=O)C2CC2C)c1C", "note": "(stereo not given)", "inhibition": "inactive: -41%"},
      {"smiles": "COc1ccccc1-c1nnc(SCC(=O)Nc2ccccc2)o1", "inhibition": "active: 73.5%"},
      {"smiles": "CCOC(=O)N1CCC(NCCNC(=O)c2cccs2)CC1", "inhibition": "inactive: -28.6%"},
      {"smiles": "CCOc1ccc(OCc2ccc(C(=O)Nc3cccnc3)o2)cc1", "inhibition": "inactive: -62.6%"},
      {"smiles": "Cn1c(=O)c(C(=O)c2ccccc2)nc2ccccc21", "inhibition": "active: 77.1%"},
      {"smiles": "COc1ccccc1-c1ccc(NC2CCCC2)nn1", "inhibition": "inconclusive: 81.2%"},
      {"smiles": "Cc1cccn2c(=O)c3cc(C(=O)NCc4ccco4)c(=N)n(CCOCCO)c3nc12", "inhibition": "inactive: -22.7%"},
      {"smiles": "COc1ccc(C2CC(c3ccc(Cl)cc3)Nc3nc(NC(=O)c4ccco4)nn32)cc1", "note": "(stereo not given)", "inhibition": "active: 74.7%"},
      {"smiles": "O=C(CCSCCC(=O)NCC1CCCO1)NCC1CCCO1", "note": "(stereo not given)", "inhibition": "inconclusive: 73.5%"},
      {"smiles": "O=C(CSc1nnc(-c2ccccn2)n1-c1ccccc1)Nc1ccc2c(c1)OCO2", "inhibition": "inconclusive: 81.7%"},
      {"smiles": "COc1ccccc1-c1cc(C(=O)Nc2cc(C)on2)no1", "inhibition": "inconclusive: 84.4%"},
      {"smiles": "O=C(Nc1ccc(Br)cc1)c1ccc(N2C(=O)C3CC=C(Cl)CC3C2=O)cc1", "note": "(stereo not given)", "inhibition": "inactive: -32.4%"},
      {"smiles": "Cc1ccc(Cn2nnc3c(=O)[nH]c(C4CCN(C(=O)Cc5cccs5)CC4)nc32)cc1", "inhibition": "inactive: -10.4%"},
      {"smiles": "NCCN1CCN(CCN)CC1", "inhibition": "inconclusive: 70%"},
      {"smiles": "Cc1cc(C)nc(N2CCCC(C(=O)NCC(c3ccccc3)c3ccccc3)C2)n1", "note": "(stereo not given)", "inhibition": "active: 88.5%"},
      {"smiles": "O=C(CSc1nnnn1-c1ccc2c(c1)OCCO2)Nc1nc2c(s1)CCCC2", "inhibition": "active: 76.9%"},
      {"smiles": "Cc1cc(=O)[nH]c(Nc2c(C)n(C)n(-c3ccccc3)c2=O)n1", "inhibition": "inactive: 20.3%"},
      {"smiles": "COCCn1c(SCC(=O)c2[nH]c(C)c(C(C)=O)c2C)nc2ccccc21", "inhibition": "inactive: -0.3%"}
    ]}
  ]
}
